Measurements as given in article PMC6856172.
These are yes or no findings as the source states them, for the method shown. Binding seen in cells or lysates may run through a third protein. Some results given as binding are weak or reduced against the parent protein; the word gives no strength.

Columns and labels:
[1] = biological target: MCL-1 (human (endogenous in A375M and GIST cells)), Q07820; test: co-IP; immunoprecipitation from lysates of KIT-mutant GIST cells treated with imatinib or vehicle; blots for NOXA and BIM (Supplementary Fig. 4a-c); details: remark: other sources report otherwise
[2] = biological target: MCL-1 (human (endogenous in A375M and GIST cells)), Q07820; test: co-IP; anti-MCL-1 antibody (mouse, BD #559027) on whole cell lysates of A375M cells in 0.5% CHAPS/HEPES buffer, 750 ug protein, overnight 4 °C, protein A or G magnetic beads; blots for NOXA and BIM; cells treated with vehicle, PLX4720 (1 uM) or dabrafenib (24 h); details: remark: other sources report otherwise

- binding [1]: binds
- binding [2]: binds
B1: NOXA, Q13794 1-54 (protein)
chain: MPGKKARKNAQPSPARAPAELEVECATQLRRFGDKLNFRQKLLNLISKLFCSGT
